For at least one entry, the source does not settle the construct or the ends of the probe. Weaker means in comparison with the reference protein, sequence or condition of that experiment. At least one verdict rests on a figure or table, not on a statement of the authors.

Chains of the proteins cited; added tags and fusions are not shown. A line that says so, or that is headed by a name, gives the form on record, which may keep a tag or linker.
Dfd (Deformed) + Exd (Extradenticle) + Hth (Homothorax), one chain, as listed by the source, chain 1 of 3: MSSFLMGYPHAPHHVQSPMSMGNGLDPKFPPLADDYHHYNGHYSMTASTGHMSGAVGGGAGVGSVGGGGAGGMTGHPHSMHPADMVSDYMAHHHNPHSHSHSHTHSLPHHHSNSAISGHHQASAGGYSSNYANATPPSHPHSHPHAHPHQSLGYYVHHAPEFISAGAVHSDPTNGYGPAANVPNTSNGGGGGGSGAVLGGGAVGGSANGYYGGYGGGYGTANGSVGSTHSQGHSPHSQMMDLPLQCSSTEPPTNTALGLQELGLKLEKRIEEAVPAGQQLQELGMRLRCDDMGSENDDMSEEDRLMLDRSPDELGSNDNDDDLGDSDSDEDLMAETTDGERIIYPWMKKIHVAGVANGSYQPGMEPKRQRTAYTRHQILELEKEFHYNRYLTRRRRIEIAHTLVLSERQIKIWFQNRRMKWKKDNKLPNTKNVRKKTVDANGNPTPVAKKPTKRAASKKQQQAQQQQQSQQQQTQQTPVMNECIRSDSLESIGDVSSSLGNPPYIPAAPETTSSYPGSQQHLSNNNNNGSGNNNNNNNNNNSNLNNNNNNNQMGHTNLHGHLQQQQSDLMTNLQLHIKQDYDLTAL
Dfd (Deformed) + Exd (Extradenticle) + Hth (Homothorax), one chain, as listed by the source, chain 2 of 3: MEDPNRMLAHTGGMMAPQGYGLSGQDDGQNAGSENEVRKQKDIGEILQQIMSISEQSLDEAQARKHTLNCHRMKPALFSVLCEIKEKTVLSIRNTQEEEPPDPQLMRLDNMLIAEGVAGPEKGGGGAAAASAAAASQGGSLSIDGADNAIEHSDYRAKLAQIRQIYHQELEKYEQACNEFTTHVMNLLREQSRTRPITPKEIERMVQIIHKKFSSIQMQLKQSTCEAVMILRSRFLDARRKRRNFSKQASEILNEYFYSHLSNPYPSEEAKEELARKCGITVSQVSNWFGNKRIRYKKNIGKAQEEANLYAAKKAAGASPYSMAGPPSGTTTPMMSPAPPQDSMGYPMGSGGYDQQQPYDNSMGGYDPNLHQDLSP
Dfd (Deformed) + Exd (Extradenticle) + Hth (Homothorax), one chain, as listed by the source, chain 3 of 3: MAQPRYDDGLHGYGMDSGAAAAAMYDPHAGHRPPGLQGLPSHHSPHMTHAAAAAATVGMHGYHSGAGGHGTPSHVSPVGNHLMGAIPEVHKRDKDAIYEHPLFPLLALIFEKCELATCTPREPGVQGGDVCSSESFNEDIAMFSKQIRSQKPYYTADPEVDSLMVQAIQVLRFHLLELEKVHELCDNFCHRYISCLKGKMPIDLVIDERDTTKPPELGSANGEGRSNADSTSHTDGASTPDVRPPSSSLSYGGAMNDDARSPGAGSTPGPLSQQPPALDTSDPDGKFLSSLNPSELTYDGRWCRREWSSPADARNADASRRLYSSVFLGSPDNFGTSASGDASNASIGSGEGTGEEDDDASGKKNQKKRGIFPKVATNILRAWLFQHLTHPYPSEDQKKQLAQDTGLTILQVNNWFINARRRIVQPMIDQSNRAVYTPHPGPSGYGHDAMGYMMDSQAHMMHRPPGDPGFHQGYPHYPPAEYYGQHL

The data set concerns Dfd (Deformed) + Exd (Extradenticle) + Hth (Homothorax). As to the kind of experiment: EMSA. The settings on record: 20 mM HEPES pH 7.9, 1.4 mM MgCl2, 1 mM ZnSO4, 40 mM KCl, 0.1 mM EGTA, 5% glycerol, 10 mM DTT, 0.1% NP40, 200 ng poly(dI-dC), 3 ug BSA, recombinant protein, protein details: GST (pGEX-6P),His-myc,His-Flag, label: 5'-Cy5.
The mark [1] stands for this setting: sites act redundantly, 2 pmol Cy5 dsDNA in 30 ul.
The mark [2] stands for this setting: both sites required for full binding, 2 pmol Cy5 dsDNA in 30 ul.

On to “AAAAATGAATTAGTGGAAATATAAATATATGATT (double strand) [oligo-C-wt (sites 5-8)]”, for which the binding result (less efficient than oligo A, 2 pmol Cy5 dsDNA in 30 ul) is recorded as “binds more weakly”.
As for “GACCGCAGAACCAAACAAATTATTAAAAATGAAT (double strand) [oligo-B-wt (sites 2, 3/4)]”, the binding result (2 pmol Cy5 dsDNA in …) was “binds”.
For “GACCGCAGAACCAAACAAATTATTGCCAGTGAAT (double strand) [oligo-B-2-mt]”, under setting [1], the binding result is “binds”.
“GACCGCAGAACCAAGCCGCCTATTAAAAATGAAT (double strand) [oligo-B-1-mt]”: under setting [1], the binding result was “binds”.
Take “TATAAAAGCCATTAAATAGCCGCCTATTCTCGAT (double strand) [oligo-D-2-mt (site 10 mutated)]”: under setting [2], the binding result was “binds more weakly”.
With “TATAAAAGGCGGCAAATACTAATCTATTCTCGAT (double strand) [oligo-D-1-mt (D-9mut-10wt)]”, under setting [2], the binding result is listed as “binds more weakly”.

(Values after paper PMC9418327.)
